From paper PMC8930771, “Structural basis of phosphatidylinositol 3-kinase C2α function” (Nature Structural & Molecular Biology, 2022)
These are yes or no findings as the source states them, for the method shown. For some assays here: Binding seen in cells or lysates may run through a third protein. Some entries that bind do so weakly or less than the wild type. For some assays here: Sequences can lack the tags named with a protein.

T1: GST-PX (PI3KC2α amino acids 1409–1539) (mouse) (UniProt Q61194)
T1 sequence: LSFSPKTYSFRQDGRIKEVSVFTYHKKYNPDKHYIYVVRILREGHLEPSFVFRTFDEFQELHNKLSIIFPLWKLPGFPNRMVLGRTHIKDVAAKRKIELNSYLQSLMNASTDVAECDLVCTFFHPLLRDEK


How the values were obtained:
[1] = target: TACC3 (endogenous) (human (endogenous in HEK293T)) (UniProt Q9Y6A5); assay: co-IP; metaphase-arrested HEK293T cells expressing eGFP-PI3KC2α WT or mutants; endogenous TACC3 immunoprecipitated with anti-TACC3 antibodies, bound proteins detected with anti-GFP antibodies
[2] = target: T1, GST-PX (PI3KC2α amino acids 1409–1539) (mouse); assay: pull-down; 10 μg immobilized GST fusion protein as bait, 200 μg PI3KC2α^ΔN+ΔPX−C2 WT or RBD mutant in 500 μl binding buffer (20 mM Tris, pH 7.5, 100 mM NaCl), 1 h at 4 °C, three washes; SDS-PAGE and Coomassie blue staining, quantified with ImageJ; both purified

| binding [1] | Molecule | binding [2] |
| --- | --- | --- |
| binds | eGFP-PI3KC2α WT (from UniProt O00443 1-1686) (enzyme) |  |
|  | PI3KC2α^ΔN+ΔPX−C2 WT (mouse PI3KC2α amino acids 377–1,400) (domain or fragment, UniProt Q61194 377-1400) VQNDEVAAFCQSIMKLKTKFPYTDHCTNPGYLLSPVTVQRNMCGENASVKVSIEIEGLQLPVTFTCDVSSTVEIIIMQALCWVHDDLNQVDVGSYILKVCGQEEVLQNNHCLGSHEHIQNCRKWDTEIKLQLLTLSAMCQNLARTAEDDEAPVDLNKYLYQIEKPYKEVMTRHPVEELLDSYHYQVELALQTENQHRAVDQVIKAVRKICSALDGVETPSVTEAVKKLKRAVNLPRNKSADVTSLSGSDTRKNSTKGSLNPENPVQVSMDHLTTAIYDLLRLHANSSRCSTACPRGSRNIKEAWTATEQLQFTVYAAHGISSNWVSNYEKYYLICSLSHNGKDLFKPIQSKKVGTYKNFFYLIKWDELIIFPIQISQLPLESVLHLTLFGVLNQSSGSSPDSNKQRKGPEALGKVSLTLFDFKRFLTCGTKLLYLWTSSHTNSIPGAIPKKSYVMERIVLQVDFPSPAFDIIYTSPQIDRNIIQQDKLETLESDIKGKLLDIIHRDSSFGLSKEDKVFLWENRYYCLKHPNCLPKILASAPNWKWANLAKTYSLLHQWPPLCPLAALELLDAKFADQEVRSLAVSWMEAISDDELADLLPQFVQALKYEIYLNSSLVRFLLSRALGNIQIAHSLYWLLKDALHDTHFGSRYEHVLGALLSVGGKGLREELSKQMKLVQLLGGVAEKVRQASGSTRQVVLQKSMERVQSFFLRNKCRLPLKPSLVAKELNIKSCSFFSSNAMPLKVTMVNADPLGEEINVMFKVGEDLRQDMLALQMIKIMDKIWLKEGLDLRMVIFRCLSTGRDRGMVELVPASDTLRKIQVEYGVTGSFKDKPLAEWLRKYNPSEEEYEKASENFIYSCAGCCVATYVLGICDRHNDNIMLRSTGHMFHIDFGKFLGHAQMFGSFKRDRAPFVLTSDMAYVINGGEKPTIRFQLFVDLCCQAYNLIRKQTNLFLNLLSLMIPSGLPELTSIQDLKYVRDALQPQTTDAEATIFFTRLIESSLGSIATKFNFFIHNLAQLRFSG | no binding (tested: 200 μg of PI3KC2α^ΔN+ΔPX−C2 in 500 μl) |
